PubChem BioAssay AID1224830 – NIAID, 2016
This is one part, drawn at random, of about 18,000 reagents. Of all reagents, about 2,900 (16%) got an active call. 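Calls are made per well; low scores hint the gene aids the LPS response, high scores that it dampens it.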 Repeated entries: four replicate wells of each siRNA pool.

- Assay: 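Regulators of TLR4 signalling towards TNF-alpha in macrophage-like cells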 (primary screen)
- Cell system: human THP-1 monocytic leukaemia cells, TNF dual-luciferase reporter clone, PMA-differentiated to macrophage-like cells
- Knock-down reagent: siRNA pool against human genes, 50 nM
- Duration: LPS for 4 h, given about 3 days after siRNA transfection
- Conditions: bacterial LPS (TLR4 ligand), 10 ng/ml
- Detection: 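TNF firefly reporter luminescence divided by renilla, normalised to the plate median, then turned into a robust z-score for each replicate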
- Scale: TNF reporter robust z-score: higher = stronger TNF reporter response to LPS
- Call rule: 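Each well counts as active if its z-score is over 2.8 or under -1.5; controls are left without a call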

| target | PubChem SID | TNF reporter robust z-score | outcome |
| --- | --- | --- | --- |
| EN2 | SID315448509 | 0.61 | inactive |
| EN2 | SID315448509 | 1.72 | inactive |
| EN2 | SID315448509 | 0.1 | inactive |
| EN2 | SID315448509 | 2.85 | active |
| RFLNB | SID315464302 | 0.57 | inactive |
| RFLNB | SID315464302 | 1.91 | inactive |
| RFLNB | SID315464302 | 2.97 | active |
| RFLNB | SID315464302 | 2.25 | inactive |
| LUC7L | SID315457776 | -1.02 | inactive |
| LUC7L | SID315457776 | -1.01 | inactive |
| LUC7L | SID315457776 | -1.25 | inactive |
| LUC7L | SID315457776 | -1.14 | inactive |
| KLHDC7B | SID315461200 | -0.71 | inactive |
| KLHDC7B | SID315461200 | 0.26 | inactive |
| KLHDC7B | SID315461200 | -0.5 | inactive |
| KLHDC7B | SID315461200 | 0.17 | inactive |
| BCL2L11 | SID315453756 | -0.14 | inactive |
| BCL2L11 | SID315453756 | -0.06 | inactive |
| BCL2L11 | SID315453756 | -0.91 | inactive |
| BCL2L11 | SID315453756 | 0.71 | inactive |
| OR2A25 | SID315464692 | -0.86 | inactive |
| OR2A25 | SID315464692 | -1.11 | inactive |
| OR2A25 | SID315464692 | -0.27 | inactive |
| OR2A25 | SID315464692 | -0.25 | inactive |
| KIF3C | SID315449647 | 0.16 | inactive |
| KIF3C | SID315449647 | 1.08 | inactive |
| KIF3C | SID315449647 | 1.18 | inactive |
| KIF3C | SID315449647 | 0.52 | inactive |
| RSBN1 | SID315457115 | -0.35 | inactive |
| RSBN1 | SID315457115 | 1.22 | inactive |
| RSBN1 | SID315457115 | -0.29 | inactive |
| RSBN1 | SID315457115 | 1.02 | inactive |
| HEBP1 | SID315456381 | 0.67 | inactive |
| HEBP1 | SID315456381 | 0.71 | inactive |
| HEBP1 | SID315456381 | 1.15 | inactive |
| HEBP1 | SID315456381 | 1.19 | inactive |
| CLCA4 | SID315454786 | -0.79 | inactive |
| CLCA4 | SID315454786 | 0.95 | inactive |
| CLCA4 | SID315454786 | -0.88 | inactive |
| CLCA4 | SID315454786 | 0.66 | inactive |
| MAPRE1 | SID315454875 | -0.61 | inactive |
| MAPRE1 | SID315454875 | -0.35 | inactive |
| MAPRE1 | SID315454875 | -0.52 | inactive |
| OFCC1 | SID315463598 | -1.38 | inactive |
| OFCC1 | SID315463598 | -1.67 | active |
| OFCC1 | SID315463598 | -1.43 | inactive |
| OFCC1 | SID315463598 | -1.54 | active |

Ordered by “TNF reporter robust z-score” (lowest first): some entries from above
| target | PubChem SID | TNF reporter robust z-score | outcome |
| --- | --- | --- | --- |
| OFCC1 | SID315463598 | -1.67 | active |
| OFCC1 | SID315463598 | -1.38 | inactive |
| MAPRE1 | SID315454875 | -0.52 | inactive |
